Assay results: PubChem BioAssay AID540256 (National Center for Advancing Translational Sciences (NCATS), 2011)
The campaign covered roughly 300,000 compounds. About 3,700 (1.2%) were called active. This list was built around the results that the source calls inconclusive (neither active nor inactive); the mix of calls is not that of the screen. Calls come from the whole dose curve; tested in HEK293 cells. A potency beside an inconclusive call is a rough fit, not a confirmed value.
Potency is the fitted concentration of half-maximal effect.

Assay: qHTS for Inhibitors of binding or entry into cells for Lassa Virus; note: nearly all actives have a fitted effect of over 50% in size
Settings: Lassa virus pseudotype entry inhibition, cell reporter; series mostly up to 37.9 µM
With COc1ccccc1N(C)S(=O)(=O)c1ccc(C(=O)OCC(=O)N(C)c2ccccc2)cc1 the Potency was inconclusive: 32.6 µM [inhibitor, partial curve, poor fit].
For O=C(OCCOc1ccccc1)c1n[nH]c2ccccc12, the Potency was inconclusive: 35.5 µM [inhibitor, single point].
In the case of Nc1cnn(-c2ccccc2)c(=O)c1Cl, the Potency is reported as inconclusive: 1.26 µM [inhibitor, partial curve, poor fit].
With CCOC(=O)c1c(NC(=O)c2nn(CC)cc2Br)c(C#N)cn1-c1ccccc1 the Potency was inconclusive: 18.3 µM [inhibitor, single point].
In the case of C=C(c1ccccc1C)[n+]1ccccc1, the Potency is reported as “inactive”.
For CSc1ccccc1NC(=S)N/N=C/c1cccn1Cc1cccc(C)c1, the Potency was inconclusive: 35.5 µM [inhibitor, partial curve, poor fit].
For CCCOc1cccc(OCCSc2nc(C)cc(=O)[nH]2)c1, the Potency was inconclusive: 32.6 µM [activator, single point].
For COc1ccccc1C(=O)NC1CCCCCCC1, the Potency was “inactive”.
For COc1ccc(Cl)cc1NC(=O)CN(C)C(=O)c1cc2ccccc2cc1O, the Potency was “inactive”.
For CCOc1ccc(-c2oc3ccccc3c(=O)c2O)cc1OCC, the Potency was inconclusive: 35.5 µM [inhibitor, single point].
In the case of CCOC(=O)C(CC)n1cnc2c(nnn2-c2ccc(OC)cc2)c1=O (stereo not given), the Potency is reported as inconclusive: 8.2 µM [inhibitor, partial curve].
With CCCS(=O)(=O)c1ncc(Cl)c(C(=O)N(Cc2ccccc2)Cc2ccco2)n1 the Potency was inconclusive: 12.6 µM [inhibitor, partial curve, poor fit].
For CCN(CC)S(=O)(=O)c1ccc(OCC2CCCCO2)c([N+](=O)[O-])c1 (stereo not given), the Potency was inconclusive: 35.5 µM [inhibitor, single point].
With COc1ccc(C(CNC(=O)c2ccc(S(=O)(=O)N3CC(C)CC(C)C3)cc2)N(C)C)cc1 (stereo not given) the Potency was inconclusive: 35.5 µM [inhibitor, single point].
With NC(=O)/C=C/C(=O)Nc1ccc(Cl)cc1 the Potency was inconclusive: 31.6 µM [inhibitor, partial curve, poor fit].
In the case of CCN(CC)S(=O)(=O)c1ccc(NC(=O)c2ccc(CN3CCOCC3)cc2)cc1, the Potency is reported as inconclusive: 2.31 µM [inhibitor, full curve, poor fit].
In the case of COc1ccc(CNC(=O)c2ccc3ccccc3n2)cc1OC, the Potency is reported as inconclusive: 2.51 µM [inhibitor, full curve, poor fit].
In the case of O=C(CS(=O)(=O)Cc1ccccc1)Nc1ccc(S(=O)(=O)N2CCCCCC2)cc1, the Potency is reported as inconclusive: 0.112 µM [inhibitor, full curve, poor fit].
In the case of COc1cccc(/C=N/n2c(-c3ccco3)nc3ccccc3c2=O)c1, the Potency is reported as “inactive”.
For COc1ccc2[nH]c(=O)c(COC(=O)c3ccco3)cc2c1, the Potency was inconclusive: 11.2 µM [inhibitor, partial curve].
In the case of CC(Cc1ccccn1)NC(=O)c1ccc(OC2CCN(Cc3ccccn3)CC2)cc1 (stereo not given), the Potency is reported as “inactive”.
With NC(N)=N/N=C/c1cccc(Cl)c1Cl the Potency was inconclusive: 12.6 µM [inhibitor, partial curve, poor fit].
With CCN(CC)c1ccc(C(=O)OCC(=O)Nc2ccc3[nH]c(=O)[nH]c3c2)cc1 the Potency was inconclusive: 31.6 µM [inhibitor, partial curve, poor fit].
With CCc1ccc(/C(C)=N\Nc2ccc([N+](=O)[O-])cc2)cc1 the Potency was inconclusive: 29.1 µM [activator, single point].
In the case of CC(C)NS(=O)(=O)c1ccc(Br)c(C(=O)OC(C)C(=O)NC2CCCCC2C)c1 (stereo not given), the Potency is reported as inconclusive: 15.8 µM [inhibitor, single point].
With Cc1cccc(N2CCN(S(=O)(=O)c3ccc(-c4cc(C)no4)s3)CC2C)c1 (stereo not given) the Potency was inconclusive: 7.08 µM [inhibitor, partial curve, poor fit].
In the case of O=C(NCc1ccccc1)c1ccc2c(c1)OCCO2, the Potency is reported as “inactive”.
In the case of CCOc1ccc(S(=O)(=O)N2CCC(C(=O)N3CCc4ccccc4C3)CC2)cc1, the Potency is reported as inconclusive: 20 µM [inhibitor, single point].
With Cc1ccc(-c2nnn(CC(=O)N(Cc3ccco3)C(C(=O)NC3CCCC3)c3cccs3)n2)o1 (stereo not given) the Potency was inconclusive: 3.98 µM [inhibitor, single point].
With COC(=O)CSc1nc(C)c(C(C)=O)cc1C#N the Potency was inconclusive: 20.6 µM [activator, single point].
With Cc1cc(NC(=O)N2CC=C(c3c[nH]c4ccccc34)CC2)ccc1Br the Potency was “inactive”.
For CN(C(=O)c1cccc(C#N)c1)c1nnc(-c2ccccn2)s1, the Potency was inconclusive: 14.1 µM [activator, partial curve, poor fit].
For O=c1[nH][nH]c(-c2ccccc2O)c1C(C[N+](=O)[O-])c1cccc(Cl)c1 (stereo not given), the Potency was inconclusive: 1.84 µM [inhibitor, full curve, poor fit].
For CCOC(=O)c1c(N)n(-c2ccc(C)c(C)c2)c2nc3ccccc3nc12, the Potency was inconclusive: 31.6 µM [activator, single point].
For CC(C)c1ccc2c(c1)C1Cc3ccccc3C1N2 (stereo not given), the Potency was inconclusive: 35.5 µM [inhibitor, single point].
In the case of Cc1ccc(NC(=S)N2CCC(NC(=O)c3ccc(F)cc3)CC2)cc1C, the Potency is reported as inconclusive: 3.16 µM [activator, single point].
For Cc1ccc(NC(=O)c2cc(NC(=O)CCCC(=O)O)ccc2Cl)cc1Cl, the Potency was “inactive”.
In the case of COc1ccc(S(=O)(=O)N(CCc2ccccc2)CC(=O)N/N=C/c2ccc3c(c2)OCO3)cc1, the Potency is reported as inconclusive: 1.41 µM [inhibitor, full curve].
For Nc1ccn([C@@H]2O[C@H](CO)[C@@H](O)[C@@H]2O)c(=O)n1, the Potency was inconclusive: 8.2 µM [inhibitor, partial curve, poor fit].
In the case of Cc1ccccc1-n1nnnc1SC(C)C(=O)Nc1ccc(N2CCN(C)CC2)cc1 (stereo not given), the Potency is reported as inconclusive: 12.6 µM [activator, single point].
With Cc1ccc(C(=O)n2nc(-c3ccco3)nc2N)cc1 the Potency was “inactive”.
In the case of O=C(C1Cc2ccccc2CN1S(=O)(=O)c1ccc(F)cc1)N1CCCCC1 (stereo not given), the Potency is reported as inconclusive: 6.51 µM [activator, single point].
With Cn1c(=O)c2c(nc(SCC(=O)Nc3ccc(OC(F)(F)F)cc3)n2Cc2cccc(C(F)(F)F)c2)n(C)c1=O the Potency was inconclusive: 10 µM [inhibitor, partial curve, poor fit].
In the case of Nc1ncnc2c1ncn2C1CCCO1 (stereo not given), the Potency is reported as inconclusive: 23.1 µM [activator, partial curve, poor fit].
For CCn1cc([N+](=O)[O-])c(C(=O)Nc2ccn(Cc3ccccc3)n2)n1, the Potency was “inactive”.
In the case of COc1ccc(CN2CCN(C(=O)C3CCC(CNS(=O)(=O)c4ccc(C)cc4)CC3)CC2)c(OC)c1OC (stereo not given), the Potency is reported as inconclusive: 7.08 µM [inhibitor, full curve, poor fit].
In the case of Cc1ccc(C(=O)CSc2nnc(-c3ccc4[nH]c(C)c(C)c4c3)o2)cc1C, the Potency is reported as “inactive”.
In the case of Cc1noc(C)c1COC(=O)c1cccc(S(=O)(=O)N2CCCCCC2)c1, the Potency is reported as inconclusive: 35.5 µM [inhibitor, single point].
For CC(=O)c1cccc(NC(=O)CCc2nc3sc4c(c3c(=O)[nH]2)CCCC4)c1, the Potency was inconclusive: 22.4 µM [activator, single point].
With Cc1cc(C)c(C(=O)CSc2nc(C)cc(C)c2C(N)=O)c(C)c1 the Potency was inconclusive: 1.12 µM [inhibitor, single point].
In the case of Cc1ccc(S(=O)(=O)Nc2ccc(NC(=O)Nc3ccc(F)cc3F)cc2)cc1, the Potency is reported as inconclusive: 6.31 µM [inhibitor, single point].
For CCCCC(=O)c1c(O)c2ccccc2oc1=O, the Potency was “inactive”.
In the case of CC/C(=N\N=C1\SC(C)C(=O)N1Cc1ccco1)c1ccccc1 (stereo not given), the Potency is reported as “inactive”.
With CCN(CC)S(=O)(=O)c1cccc(NC(=O)CCNC(=O)NC23CC4CC(CC(C4)C2)C3)c1 the Potency was inconclusive: 35.5 µM [inhibitor, single point].
For COc1cc(C)c(C(=O)CC(=O)c2c(C)cc(OC)cc2C)c(C)c1, the Potency was inconclusive: 10 µM [inhibitor, partial curve, poor fit].
In the case of CN(c1cccc(NC(=O)c2ccccc2N(C)S(=O)(=O)c2ccccc2)c1)S(C)(=O)=O, the Potency is reported as inconclusive: 35.5 µM [inhibitor, single point].
With O=C(Cc1ccccc1F)Nc1cc(S(=O)(=O)N2CCOCC2)ccc1N1CCCC1 the Potency was inconclusive: 1.41 µM [inhibitor, partial curve, poor fit].
With O=C(Cc1ccc(S(=O)(=O)N2CCOCC2)s1)Nc1ccccc1N1CCCC1 the Potency was “inactive”.
For CCSC(=O)N=Nc1ccc(O)cc1, the Potency was “inactive”.
With Cc1cccc(N2CCN(S(=O)(=O)c3cc(Br)cc4c3N(C(=O)C3CC3)CC4)CC2C)c1 (stereo not given) the Potency was “inactive”.
In the case of CC(C)(C)C(=O)NC1CCN(C(=O)N2CCCC2)CC1, the Potency is reported as “inactive”.
In the case of COc1cccc(-c2nc(SCC(=O)Nc3ccc4c(c3)OCO4)c(-c3ccccc3)[nH]2)c1, the Potency is reported as inconclusive: 14.1 µM [inhibitor, single point].
For CN(C)S(=O)(=O)N(CC(=O)NCCSCc1ccccc1Cl)c1ccccc1, the Potency was inconclusive: 35.5 µM [inhibitor, partial curve, poor fit].
For Cc1ccc(S(=O)(=O)N2CCCN(S(=O)(=O)c3ccccc3Br)CC2)cc1, the Potency was inconclusive: 0.445 µM [inhibitor, full curve, poor fit].
In the case of Cc1nc2c(cnn2-c2ccccc2Cl)c(=O)n1-c1ccc(C(C)C)cc1, the Potency is reported as active: 9.2 µM.
